From the supplement of paper PMC10849652
The other results are listed elsewhere or left out.

Chains of the proteins cited; added tags and fusions are not shown. Lines headed by an entry give the natural chain unless they say otherwise; changes in a name come on top.
UniProt Q7Z392: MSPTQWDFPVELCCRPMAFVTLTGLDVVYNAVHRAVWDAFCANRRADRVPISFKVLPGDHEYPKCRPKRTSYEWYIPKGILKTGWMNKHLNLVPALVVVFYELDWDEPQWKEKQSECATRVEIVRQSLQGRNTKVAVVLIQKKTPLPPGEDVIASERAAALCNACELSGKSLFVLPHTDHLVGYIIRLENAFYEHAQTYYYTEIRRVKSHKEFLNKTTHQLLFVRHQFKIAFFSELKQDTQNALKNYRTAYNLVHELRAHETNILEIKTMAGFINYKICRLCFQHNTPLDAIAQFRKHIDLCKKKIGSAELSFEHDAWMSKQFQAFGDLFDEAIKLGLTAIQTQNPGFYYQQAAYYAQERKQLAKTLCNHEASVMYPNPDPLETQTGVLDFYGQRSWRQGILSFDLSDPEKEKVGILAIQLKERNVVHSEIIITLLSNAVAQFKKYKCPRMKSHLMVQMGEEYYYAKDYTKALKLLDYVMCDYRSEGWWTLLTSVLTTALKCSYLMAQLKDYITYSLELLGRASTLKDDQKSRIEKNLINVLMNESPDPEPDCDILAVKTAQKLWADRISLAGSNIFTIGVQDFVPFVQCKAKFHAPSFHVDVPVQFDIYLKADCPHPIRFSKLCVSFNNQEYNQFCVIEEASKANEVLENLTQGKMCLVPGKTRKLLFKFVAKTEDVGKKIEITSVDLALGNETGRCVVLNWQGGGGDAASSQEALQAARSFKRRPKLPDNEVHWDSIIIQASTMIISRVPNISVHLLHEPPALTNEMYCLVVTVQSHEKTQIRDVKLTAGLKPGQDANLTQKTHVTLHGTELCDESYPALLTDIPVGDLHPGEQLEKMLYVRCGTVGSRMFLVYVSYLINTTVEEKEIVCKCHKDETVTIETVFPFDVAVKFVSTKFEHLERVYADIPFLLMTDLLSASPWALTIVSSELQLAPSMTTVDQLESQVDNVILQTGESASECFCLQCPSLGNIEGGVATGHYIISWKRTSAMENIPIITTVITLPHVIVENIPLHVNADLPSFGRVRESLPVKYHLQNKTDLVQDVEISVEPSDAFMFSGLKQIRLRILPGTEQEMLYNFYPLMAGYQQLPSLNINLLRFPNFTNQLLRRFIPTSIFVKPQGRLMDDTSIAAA
UniProt Q9UPN9: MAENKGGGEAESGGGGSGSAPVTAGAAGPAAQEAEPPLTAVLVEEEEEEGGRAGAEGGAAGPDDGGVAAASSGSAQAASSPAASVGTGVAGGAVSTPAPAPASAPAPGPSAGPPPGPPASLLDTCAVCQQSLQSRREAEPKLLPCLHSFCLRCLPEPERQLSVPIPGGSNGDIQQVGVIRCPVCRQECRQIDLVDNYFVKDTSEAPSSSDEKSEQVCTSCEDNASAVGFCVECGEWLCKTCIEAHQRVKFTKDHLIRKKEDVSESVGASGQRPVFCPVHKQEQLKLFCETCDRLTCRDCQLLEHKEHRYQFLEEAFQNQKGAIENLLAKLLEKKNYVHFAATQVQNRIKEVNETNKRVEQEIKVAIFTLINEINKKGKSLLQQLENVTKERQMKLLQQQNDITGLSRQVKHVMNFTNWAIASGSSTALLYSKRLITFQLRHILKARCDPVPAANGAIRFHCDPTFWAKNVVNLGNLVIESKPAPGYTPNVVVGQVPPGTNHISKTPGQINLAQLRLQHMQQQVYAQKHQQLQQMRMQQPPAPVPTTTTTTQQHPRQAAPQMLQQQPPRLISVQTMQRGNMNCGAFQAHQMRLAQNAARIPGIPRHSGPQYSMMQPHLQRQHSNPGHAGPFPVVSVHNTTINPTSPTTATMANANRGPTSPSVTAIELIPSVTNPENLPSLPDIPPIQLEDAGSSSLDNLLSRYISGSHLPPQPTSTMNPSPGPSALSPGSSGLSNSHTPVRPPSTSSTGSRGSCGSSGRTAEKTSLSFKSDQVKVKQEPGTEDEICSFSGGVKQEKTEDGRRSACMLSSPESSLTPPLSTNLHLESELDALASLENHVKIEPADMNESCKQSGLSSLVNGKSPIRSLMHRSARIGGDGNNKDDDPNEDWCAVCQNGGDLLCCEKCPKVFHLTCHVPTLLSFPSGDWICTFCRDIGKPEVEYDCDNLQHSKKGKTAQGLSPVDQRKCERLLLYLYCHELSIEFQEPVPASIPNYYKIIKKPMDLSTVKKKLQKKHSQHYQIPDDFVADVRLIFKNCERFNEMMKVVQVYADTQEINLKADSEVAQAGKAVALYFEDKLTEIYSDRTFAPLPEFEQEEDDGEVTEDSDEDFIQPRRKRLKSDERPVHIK
UniProt Q99816: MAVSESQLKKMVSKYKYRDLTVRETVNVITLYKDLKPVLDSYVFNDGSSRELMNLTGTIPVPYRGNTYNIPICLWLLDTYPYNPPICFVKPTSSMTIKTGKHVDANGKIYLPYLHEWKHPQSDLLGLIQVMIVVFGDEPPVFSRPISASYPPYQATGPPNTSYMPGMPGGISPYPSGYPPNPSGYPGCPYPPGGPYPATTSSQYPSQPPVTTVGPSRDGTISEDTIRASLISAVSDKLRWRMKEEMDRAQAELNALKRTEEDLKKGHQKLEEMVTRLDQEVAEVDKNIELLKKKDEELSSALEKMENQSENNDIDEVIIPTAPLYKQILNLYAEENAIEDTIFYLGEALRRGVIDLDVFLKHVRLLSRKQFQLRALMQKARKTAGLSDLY
UniProt Q8IZ69: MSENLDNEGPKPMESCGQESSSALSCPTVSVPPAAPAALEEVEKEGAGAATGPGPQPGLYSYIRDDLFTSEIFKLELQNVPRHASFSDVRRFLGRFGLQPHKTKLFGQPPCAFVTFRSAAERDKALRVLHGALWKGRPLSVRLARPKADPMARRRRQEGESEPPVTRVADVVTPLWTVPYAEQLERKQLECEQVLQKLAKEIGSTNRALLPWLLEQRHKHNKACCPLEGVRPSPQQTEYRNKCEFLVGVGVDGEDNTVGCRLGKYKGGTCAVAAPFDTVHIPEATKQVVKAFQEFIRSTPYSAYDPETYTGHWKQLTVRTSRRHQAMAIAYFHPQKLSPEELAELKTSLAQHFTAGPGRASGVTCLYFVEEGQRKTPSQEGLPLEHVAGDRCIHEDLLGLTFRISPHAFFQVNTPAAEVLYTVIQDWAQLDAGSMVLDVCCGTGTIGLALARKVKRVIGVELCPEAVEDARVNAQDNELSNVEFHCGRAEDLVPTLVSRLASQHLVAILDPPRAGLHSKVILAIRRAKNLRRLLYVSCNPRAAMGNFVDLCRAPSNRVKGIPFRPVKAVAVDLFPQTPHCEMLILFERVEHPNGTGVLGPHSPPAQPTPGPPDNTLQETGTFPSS
UniProt Q99598: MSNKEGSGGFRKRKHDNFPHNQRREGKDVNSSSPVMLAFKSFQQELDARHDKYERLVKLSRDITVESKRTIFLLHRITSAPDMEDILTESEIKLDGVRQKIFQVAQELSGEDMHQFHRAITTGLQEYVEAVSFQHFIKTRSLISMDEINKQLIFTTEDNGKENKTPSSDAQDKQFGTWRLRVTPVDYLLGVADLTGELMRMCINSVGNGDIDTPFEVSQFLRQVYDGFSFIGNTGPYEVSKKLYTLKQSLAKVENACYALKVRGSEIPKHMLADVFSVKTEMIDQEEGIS
UniProt Q9NXH9: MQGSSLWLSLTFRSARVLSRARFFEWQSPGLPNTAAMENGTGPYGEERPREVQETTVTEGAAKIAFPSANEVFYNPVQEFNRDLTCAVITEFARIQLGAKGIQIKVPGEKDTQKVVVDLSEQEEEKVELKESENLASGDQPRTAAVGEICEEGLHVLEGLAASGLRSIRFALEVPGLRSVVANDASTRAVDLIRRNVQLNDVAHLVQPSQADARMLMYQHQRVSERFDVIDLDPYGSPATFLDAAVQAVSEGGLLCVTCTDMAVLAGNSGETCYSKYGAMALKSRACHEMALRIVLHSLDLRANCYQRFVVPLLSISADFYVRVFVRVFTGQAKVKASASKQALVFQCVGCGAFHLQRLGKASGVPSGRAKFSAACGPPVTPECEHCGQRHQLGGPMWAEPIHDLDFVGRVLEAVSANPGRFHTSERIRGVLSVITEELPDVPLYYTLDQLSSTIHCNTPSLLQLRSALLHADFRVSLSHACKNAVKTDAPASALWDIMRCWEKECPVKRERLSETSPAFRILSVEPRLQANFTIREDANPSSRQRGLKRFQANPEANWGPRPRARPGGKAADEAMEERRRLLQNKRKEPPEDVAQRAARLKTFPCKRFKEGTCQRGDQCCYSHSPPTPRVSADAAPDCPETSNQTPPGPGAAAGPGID
UniProt Q15631: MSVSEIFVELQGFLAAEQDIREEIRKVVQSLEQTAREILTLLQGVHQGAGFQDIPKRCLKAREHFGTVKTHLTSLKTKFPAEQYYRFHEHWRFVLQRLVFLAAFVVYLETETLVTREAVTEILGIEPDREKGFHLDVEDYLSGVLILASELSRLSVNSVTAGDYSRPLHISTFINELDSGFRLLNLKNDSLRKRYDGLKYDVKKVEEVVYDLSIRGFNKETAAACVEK
UniProt Q13114: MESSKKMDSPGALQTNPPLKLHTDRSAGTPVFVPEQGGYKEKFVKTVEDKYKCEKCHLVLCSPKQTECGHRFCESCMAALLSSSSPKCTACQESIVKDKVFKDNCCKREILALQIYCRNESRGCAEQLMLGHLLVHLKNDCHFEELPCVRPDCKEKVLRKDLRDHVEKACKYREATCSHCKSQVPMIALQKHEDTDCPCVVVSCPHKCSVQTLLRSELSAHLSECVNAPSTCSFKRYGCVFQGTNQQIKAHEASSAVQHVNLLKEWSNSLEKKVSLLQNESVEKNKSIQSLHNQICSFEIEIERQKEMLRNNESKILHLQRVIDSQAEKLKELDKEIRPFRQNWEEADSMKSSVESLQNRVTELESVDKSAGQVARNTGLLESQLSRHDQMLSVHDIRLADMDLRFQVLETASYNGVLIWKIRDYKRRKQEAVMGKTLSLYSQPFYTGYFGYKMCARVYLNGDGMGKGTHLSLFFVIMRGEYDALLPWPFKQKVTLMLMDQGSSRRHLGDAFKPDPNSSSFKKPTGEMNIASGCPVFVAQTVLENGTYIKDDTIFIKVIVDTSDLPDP
UniProt O14545: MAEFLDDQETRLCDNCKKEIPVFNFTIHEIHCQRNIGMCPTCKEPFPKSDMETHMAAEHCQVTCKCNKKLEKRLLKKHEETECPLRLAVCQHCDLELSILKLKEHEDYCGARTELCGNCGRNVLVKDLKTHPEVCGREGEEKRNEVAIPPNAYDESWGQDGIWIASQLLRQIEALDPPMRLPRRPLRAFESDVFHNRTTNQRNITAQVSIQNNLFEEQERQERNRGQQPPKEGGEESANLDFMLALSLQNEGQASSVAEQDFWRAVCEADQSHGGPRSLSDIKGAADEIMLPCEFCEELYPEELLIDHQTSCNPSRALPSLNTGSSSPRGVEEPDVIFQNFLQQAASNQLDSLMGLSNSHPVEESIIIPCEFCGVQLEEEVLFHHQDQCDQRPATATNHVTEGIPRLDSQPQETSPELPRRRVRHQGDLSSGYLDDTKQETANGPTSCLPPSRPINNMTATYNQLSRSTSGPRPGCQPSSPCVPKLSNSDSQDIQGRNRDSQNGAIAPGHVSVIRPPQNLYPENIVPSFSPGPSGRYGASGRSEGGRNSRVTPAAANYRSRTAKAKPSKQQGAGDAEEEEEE
UniProt Q16762: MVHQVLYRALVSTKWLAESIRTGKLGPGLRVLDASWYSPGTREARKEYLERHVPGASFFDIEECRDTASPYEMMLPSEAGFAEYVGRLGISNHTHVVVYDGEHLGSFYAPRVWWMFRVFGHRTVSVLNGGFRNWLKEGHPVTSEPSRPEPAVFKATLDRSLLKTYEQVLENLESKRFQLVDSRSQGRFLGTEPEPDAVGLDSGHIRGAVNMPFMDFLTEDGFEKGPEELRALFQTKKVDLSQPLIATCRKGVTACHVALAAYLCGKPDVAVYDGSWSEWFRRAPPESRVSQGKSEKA
UniProt Q969E8: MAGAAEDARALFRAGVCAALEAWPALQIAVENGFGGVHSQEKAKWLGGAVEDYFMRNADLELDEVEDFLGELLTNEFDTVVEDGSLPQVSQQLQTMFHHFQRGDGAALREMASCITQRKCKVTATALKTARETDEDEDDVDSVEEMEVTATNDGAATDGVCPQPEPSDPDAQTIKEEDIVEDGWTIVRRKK
UniProt Q7L0Y3: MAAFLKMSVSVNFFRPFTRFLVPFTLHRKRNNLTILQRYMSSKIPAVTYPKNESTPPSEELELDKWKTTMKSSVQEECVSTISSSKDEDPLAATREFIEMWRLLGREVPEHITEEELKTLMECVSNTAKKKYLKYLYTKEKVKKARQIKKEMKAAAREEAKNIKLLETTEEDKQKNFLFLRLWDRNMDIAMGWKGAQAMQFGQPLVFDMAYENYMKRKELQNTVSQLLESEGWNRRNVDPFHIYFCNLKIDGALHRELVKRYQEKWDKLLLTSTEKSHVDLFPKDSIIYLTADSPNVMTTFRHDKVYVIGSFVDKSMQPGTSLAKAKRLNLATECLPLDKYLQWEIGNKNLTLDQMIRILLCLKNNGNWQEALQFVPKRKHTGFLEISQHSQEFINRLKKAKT

How the values were obtained:
Test in all cases: log2 fold change, soluble protein after heating vs DMSO (PISA); higher = thermal stabilisation; K562 lysate, 10 uM; active = over 0.2 and 3.5 SD of the protein, either way, in both replicates (recomputed)
[1] = compound: C1=CC=C(C=C1)[C@H](COC2=CC3=C(C=C2)NC(=O)N3)NC(=O)C4=CC=CN(C4=O)CC5=CC(=C(C=C5)F)F
How it was run: (§1)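 Following dounce homogenisation of K562 pellets in PBS pH 7.4 with 1 mM MgCl2, crude extract at 1 mg/mL protein was incubated for 30 min with 10 μM compound. Aliquots were then heated for 3 min over 48°C-58°C and pooled, NP-40 was added to 0.5% at 4°C, and soluble protein was recovered as the supernatant at 21,000xg for 90 min. Channel-sum-equalised TMTpro 16plex LC-MS/MS quantified this protein. Each value, from duplicates, is a log-two fold change in thermal stability relative to solvent controls.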

[2] = compound: CC1=C(SC2=C1C(=N[C@H](C3=NN=C(N32)C)CC(=O)N)C4=CC=C(C=C4)Cl)C
How it was run: as §1

[3] = compound: CC1=C2C(=CC=C1)N=C(N(C2=O)C3=CC=CC=C3C)CN4C=NC5=C(N=CN=C54)N
How it was run: as §1

[4] = compound: Cc1sc2c(c1C)C(c1ccc(Cl)cc1)=N[C@@H](CC(=O)OC(C)(C)C)c1nnc(C)n1-2
How it was run: as §1

[5] = compound: c1ccc([C@@H]2C[C@H]2NC2CCNCC2)cc1
How it was run: as §1

Measured: log2 fold change

TRAPPC11 (UniProt Q7Z392)
inactive: [1] 0.022 | [2] 0.023 | [3] 0.05 | [4] -0.001 | [5] -0.008

TTC7B isoform 2 (UniProt Q86TV6)
inactive: [1] -0.036 | [2] -0.085 | [3] 0.009 | [4] -0.04 | [5] 0.026

TRMT1L (UniProt Q7Z2T5)
inactive: [1] 0.033 | [2] -0.024 | [3] 0.09 | [4] -0.025 | [5] -0.029

TTC12 isoform 2 (UniProt Q9H892)
inactive: [1] -0.123 | [2] -0.131 | [3] 0.033 | [4] 0.044 | [5] 0.058

TRIM33 isoform 2 (UniProt Q9UPN9)
inactive: [1] 0.003 | [2] 0.009 | [3] 0.022 | [4] 0.011 | [5] 0.005

TSG101 (UniProt Q99816)
inactive: [1] 0.013 | [2] 0.003 | [3] 0.018 | [4] 0.008 | [5] -0.089

TRMT2A (UniProt Q8IZ69)
inactive: [1] 0.003 | [2] 0.02 | [3] 0.003 | [4] 0.02 | [5] 0.027

TSNAX (UniProt Q99598)
inactive: [1] 0.019 | [2] 0.014 | [3] 0 | [4] -0.036 | [5] 0.007

TRMT1 (UniProt Q9NXH9)
inactive: [1] 0.005 | [2] 0 | [3] 0.012 | [4] -0.045 | [5] -0.012

TRAF4 (UniProt Q9BUZ4)
inactive: [1] 0.153 | [2] 0.094 | [3] 0.052 | [4] -0.011 | [5] -0.011

TSC22D4 (UniProt Q9Y3Q8)
inactive: [1] 0.013 | [2] -0.009 | [3] 0.037 | [4] -0.01 | [5] -0.033

TSN (UniProt Q15631)
inactive: [1] -0.019 | [2] -0.007 | [3] 0.001 | [4] -0.002 | [5] -0.034

TSTD2 (UniProt Q5T7W7)
inactive: [1] -0.05 | [2] -0.076 | [3] -0.058 | [4] 0.063 | [5] 0.165

TRIM23 (UniProt P36406)
inactive: [1] 0.036 | [2] -0.05 | [3] 0.052 | [4] 0.034 | [5] -0.275

TRAF3 (UniProt Q13114)
inactive: [1] -0.197 | [2] -0.084 | [3] -0.028 | [4] 0.001 | [5] -0.021

TRAFD1 (UniProt O14545)
inactive: [1] 0.02 | [2] 0.001 | [3] -0.013 | [4] 0.006 | [5] -0.008

TST (UniProt Q16762)
inactive: [1] 0.008 | [2] 0.037 | [3] -0.02 | [4] 0.057 | [5] 0.057

TSR2 (UniProt Q969E8)
inactive: [1] -0.008 | [2] -0.02 | [3] 0.019 | [4] 0.03 | [5] 0.038

TSEN15 (UniProt Q8WW01)
inactive: [1] -0.044 | [2] -0.101 | [3] -0.019 | [4] 0.021 | [5] -0.004

TRIM33 (UniProt H0Y612)
inactive: [1] -0.042 | [2] 0.008 | [3] 0.05 | [4] 0.021 | [5] 0.098

TRAM1 (UniProt Q15629)
inactive: [1] -0.214 | [2] -0.011 | [3] 0.043 | [4] 0.006 | [5] -0.015

TRMT112 (UniProt Q9UI30)
inactive: [1] -0.039 | [2] 0.017 | [3] 0.067 | [4] 0.037 | [5] -0.012

TTC5 (UniProt Q8N0Z6)
inactive: [1] -0.022 | [2] 0.009 | [3] 0.035 | [4] 0.039 | [5] 0.002

Looked up one by one from the entries so far (three):
TRMT1L (UniProt Q7Z2T5)
inactive: [1] 0.033 | [2] -0.024 | [3] 0.09 | [4] -0.025 | [5] -0.029

TSN (UniProt Q15631)
inactive: [1] -0.019 | [2] -0.007 | [3] 0.001 | [4] -0.002 | [5] -0.034

TRAF3 (UniProt Q13114)
inactive: [1] -0.197 | [2] -0.084 | [3] -0.028 | [4] 0.001 | [5] -0.021

Further entries:

TRMT61B (UniProt Q9BVS5)
inactive: [1] 0.015 | [2] 0.039 | [3] 0.013 | [4] 0 | [5] -0.014

TRIM4 (UniProt Q9C037)
inactive: [1] -0.058 | [2] 0.143 | [3] 0.146 | [4] -0.019 | [5] 0.06

TRMT10A (UniProt Q8TBZ6)
inactive: [1] -0.046 | [2] 0.099 | [3] -0.025 | [4] 0.016 | [5] -0.029

TSEN54 (UniProt Q7Z6J9)
inactive: [1] -0.006 | [2] 0.03 | [3] 0.014 | [4] 0.033 | [5] -0.027

TRIM24 (UniProt O15164)
inactive: [1] 0.018 | [2] -0.031 | [3] 0.021 | [4] 0.015 | [5] 0.034

TRIM28 (UniProt Q13263)
inactive: [1] 0.008 | [2] -0.001 | [3] 0.003 | [4] 0.011 | [5] 0.034

TRMT10C (UniProt Q7L0Y3)
inactive: [1] 0.047 | [2] -0.018 | [3] 0.035 | [4] 0.006 | [5] 0.049

TRIP12 isoform 2 (UniProt Q14669)
inactive: [1] -0.043 | [2] 0.07 | [3] -0.018 | [4] 0 | [5] 0.062

TSC2 isoform 4 (UniProt P49815)
inactive: [1] 0.036 | [2] 0.055 | [3] -0.019 | [4] -0.052 | [5] -0.012

TTC21B (UniProt Q7Z4L5)
inactive: [1] 0.208 | [2] 0.046 | [3] 0.068 | [4] -0.276 | [5] -0.065

TRPS1 isoform 2 (UniProt Q9UHF7)
inactive: [4] 0.078 | [5] -0.404

TSPYL6 (UniProt Q8N831)
inactive: [4] 0.032

TRIM27 (UniProt P14373)
inactive: [1] 0.01 | [2] -0.011 | [3] 0.022 | [5] -0.087

TTC17 isoform 2 (UniProt Q96AE7)
inactive: [5] -0.078

TTC26
inactive: [4] -0.15 | [5] -0.134

TTLL12 (UniProt V9GY16)
inactive: [1] 0.022 | [2] 0.606 | [3] 0.066 | [5] -0.065

TRNT1 (UniProt Q96Q11)
inactive: [1] 0.061 | [2] -0.004 | [3] -0.04 | [4] 0.045 | [5] 0.031

TSKS (UniProt Q9UJT2)
inactive: [3] 0.038 | [4] 0.034 | [5] 0.106
